Test results taken from the supplement of paper PMC10849652.
The other results are listed elsewhere or left out.

Chains of the proteins cited; added tags and fusions are not shown. Lines headed by an entry give the natural chain unless they say otherwise; changes in a name come on top.
UniProt Q8N1A6: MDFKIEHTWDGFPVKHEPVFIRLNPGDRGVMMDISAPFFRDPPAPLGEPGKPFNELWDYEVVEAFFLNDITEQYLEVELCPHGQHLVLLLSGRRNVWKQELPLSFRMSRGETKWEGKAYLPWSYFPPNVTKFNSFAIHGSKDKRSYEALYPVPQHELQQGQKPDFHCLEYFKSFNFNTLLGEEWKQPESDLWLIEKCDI
UniProt A6NDU8: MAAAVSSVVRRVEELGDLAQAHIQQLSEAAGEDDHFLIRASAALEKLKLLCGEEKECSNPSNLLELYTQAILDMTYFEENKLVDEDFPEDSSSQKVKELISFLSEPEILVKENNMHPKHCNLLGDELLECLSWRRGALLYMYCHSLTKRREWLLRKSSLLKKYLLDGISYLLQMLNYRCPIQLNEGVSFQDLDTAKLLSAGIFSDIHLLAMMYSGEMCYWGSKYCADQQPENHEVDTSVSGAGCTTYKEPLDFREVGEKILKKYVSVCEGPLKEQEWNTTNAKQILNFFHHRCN
UniProt Q9UFG5: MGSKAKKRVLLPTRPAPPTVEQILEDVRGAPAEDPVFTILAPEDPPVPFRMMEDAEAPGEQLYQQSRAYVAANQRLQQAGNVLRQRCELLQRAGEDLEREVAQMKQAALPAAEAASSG
UniProt Q6ZSJ8: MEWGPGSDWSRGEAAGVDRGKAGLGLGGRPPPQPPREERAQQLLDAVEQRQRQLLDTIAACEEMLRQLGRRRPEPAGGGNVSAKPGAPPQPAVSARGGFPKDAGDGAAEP
UniProt Q8WVQ1: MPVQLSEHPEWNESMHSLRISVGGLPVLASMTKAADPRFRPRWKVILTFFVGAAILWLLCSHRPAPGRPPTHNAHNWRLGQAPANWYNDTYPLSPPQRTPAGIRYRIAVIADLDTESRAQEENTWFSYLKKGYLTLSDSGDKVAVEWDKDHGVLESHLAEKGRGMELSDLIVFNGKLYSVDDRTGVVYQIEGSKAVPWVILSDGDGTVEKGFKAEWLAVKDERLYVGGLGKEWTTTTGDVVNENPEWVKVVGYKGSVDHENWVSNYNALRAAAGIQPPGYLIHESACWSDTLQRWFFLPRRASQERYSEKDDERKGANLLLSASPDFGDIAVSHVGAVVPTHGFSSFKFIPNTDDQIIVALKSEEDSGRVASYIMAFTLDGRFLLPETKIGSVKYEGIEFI
UniProt P04632: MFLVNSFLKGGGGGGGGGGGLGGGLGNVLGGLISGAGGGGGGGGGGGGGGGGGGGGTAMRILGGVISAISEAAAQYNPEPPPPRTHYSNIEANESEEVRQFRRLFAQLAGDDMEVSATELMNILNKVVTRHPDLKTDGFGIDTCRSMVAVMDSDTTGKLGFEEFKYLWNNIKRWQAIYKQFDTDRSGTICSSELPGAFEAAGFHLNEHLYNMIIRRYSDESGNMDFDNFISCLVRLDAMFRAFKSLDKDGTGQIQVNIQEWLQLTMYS
UniProt Q9Y6W3: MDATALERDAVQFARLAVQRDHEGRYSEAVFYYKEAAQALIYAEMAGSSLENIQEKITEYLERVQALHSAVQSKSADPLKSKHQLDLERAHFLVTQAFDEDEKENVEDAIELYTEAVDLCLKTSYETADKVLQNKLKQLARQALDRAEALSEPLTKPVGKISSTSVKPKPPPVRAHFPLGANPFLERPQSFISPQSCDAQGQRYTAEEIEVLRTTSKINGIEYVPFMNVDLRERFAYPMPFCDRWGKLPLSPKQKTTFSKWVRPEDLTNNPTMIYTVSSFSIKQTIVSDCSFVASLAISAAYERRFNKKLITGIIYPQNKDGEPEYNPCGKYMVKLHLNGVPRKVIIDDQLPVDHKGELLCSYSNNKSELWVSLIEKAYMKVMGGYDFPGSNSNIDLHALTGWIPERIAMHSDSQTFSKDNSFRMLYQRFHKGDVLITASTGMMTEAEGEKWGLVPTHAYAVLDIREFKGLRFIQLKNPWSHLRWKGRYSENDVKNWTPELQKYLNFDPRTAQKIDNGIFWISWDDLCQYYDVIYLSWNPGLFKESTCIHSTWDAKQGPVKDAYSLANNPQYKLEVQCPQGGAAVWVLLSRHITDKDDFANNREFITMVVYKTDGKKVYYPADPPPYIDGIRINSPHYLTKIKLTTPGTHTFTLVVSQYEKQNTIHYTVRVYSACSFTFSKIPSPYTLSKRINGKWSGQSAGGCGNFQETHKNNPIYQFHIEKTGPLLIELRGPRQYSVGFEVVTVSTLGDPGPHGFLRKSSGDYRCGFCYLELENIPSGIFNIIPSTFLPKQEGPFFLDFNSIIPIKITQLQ
UniProt P01024, whole entry, looked up: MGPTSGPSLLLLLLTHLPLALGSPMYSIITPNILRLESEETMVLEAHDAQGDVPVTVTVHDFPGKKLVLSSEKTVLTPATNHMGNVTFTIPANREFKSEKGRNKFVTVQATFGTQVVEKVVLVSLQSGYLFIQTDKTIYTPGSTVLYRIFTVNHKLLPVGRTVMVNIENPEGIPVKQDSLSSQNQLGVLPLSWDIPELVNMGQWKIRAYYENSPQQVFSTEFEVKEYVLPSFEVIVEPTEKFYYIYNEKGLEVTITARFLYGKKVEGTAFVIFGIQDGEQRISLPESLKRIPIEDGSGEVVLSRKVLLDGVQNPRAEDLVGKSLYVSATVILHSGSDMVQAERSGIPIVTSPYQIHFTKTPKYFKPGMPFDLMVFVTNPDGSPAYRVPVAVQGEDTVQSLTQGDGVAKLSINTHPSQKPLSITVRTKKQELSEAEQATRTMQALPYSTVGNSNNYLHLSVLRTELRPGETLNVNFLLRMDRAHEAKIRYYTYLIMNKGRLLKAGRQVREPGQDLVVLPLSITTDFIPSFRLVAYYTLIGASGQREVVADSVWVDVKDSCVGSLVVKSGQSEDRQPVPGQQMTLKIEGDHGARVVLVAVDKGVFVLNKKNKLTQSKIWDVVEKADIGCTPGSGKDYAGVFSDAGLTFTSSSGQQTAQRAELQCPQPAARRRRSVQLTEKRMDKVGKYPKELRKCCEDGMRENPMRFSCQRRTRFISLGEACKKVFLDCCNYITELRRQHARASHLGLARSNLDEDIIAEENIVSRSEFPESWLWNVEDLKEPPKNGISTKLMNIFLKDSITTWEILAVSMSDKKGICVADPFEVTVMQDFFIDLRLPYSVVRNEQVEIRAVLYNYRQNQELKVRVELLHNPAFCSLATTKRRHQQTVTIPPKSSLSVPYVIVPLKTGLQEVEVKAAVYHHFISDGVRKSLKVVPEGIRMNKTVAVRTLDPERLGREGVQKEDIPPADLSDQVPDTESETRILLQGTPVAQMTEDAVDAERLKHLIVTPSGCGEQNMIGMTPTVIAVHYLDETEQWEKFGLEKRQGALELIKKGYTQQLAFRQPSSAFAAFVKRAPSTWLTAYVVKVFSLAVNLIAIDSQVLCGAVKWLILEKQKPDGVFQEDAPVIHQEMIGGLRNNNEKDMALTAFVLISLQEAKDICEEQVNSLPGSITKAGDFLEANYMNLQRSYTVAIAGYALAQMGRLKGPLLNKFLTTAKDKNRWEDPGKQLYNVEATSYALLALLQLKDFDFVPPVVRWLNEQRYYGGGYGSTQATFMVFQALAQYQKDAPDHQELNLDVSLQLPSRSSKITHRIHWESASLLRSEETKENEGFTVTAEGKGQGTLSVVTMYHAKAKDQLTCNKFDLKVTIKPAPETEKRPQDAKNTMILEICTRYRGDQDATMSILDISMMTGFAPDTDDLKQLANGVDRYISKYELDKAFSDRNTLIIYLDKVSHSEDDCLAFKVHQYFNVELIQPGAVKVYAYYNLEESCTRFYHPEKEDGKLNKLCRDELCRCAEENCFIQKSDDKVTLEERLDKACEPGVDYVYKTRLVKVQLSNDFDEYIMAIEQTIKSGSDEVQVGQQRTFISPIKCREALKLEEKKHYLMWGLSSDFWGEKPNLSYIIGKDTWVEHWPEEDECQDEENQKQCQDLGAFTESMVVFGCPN
UniProt Q9Y426: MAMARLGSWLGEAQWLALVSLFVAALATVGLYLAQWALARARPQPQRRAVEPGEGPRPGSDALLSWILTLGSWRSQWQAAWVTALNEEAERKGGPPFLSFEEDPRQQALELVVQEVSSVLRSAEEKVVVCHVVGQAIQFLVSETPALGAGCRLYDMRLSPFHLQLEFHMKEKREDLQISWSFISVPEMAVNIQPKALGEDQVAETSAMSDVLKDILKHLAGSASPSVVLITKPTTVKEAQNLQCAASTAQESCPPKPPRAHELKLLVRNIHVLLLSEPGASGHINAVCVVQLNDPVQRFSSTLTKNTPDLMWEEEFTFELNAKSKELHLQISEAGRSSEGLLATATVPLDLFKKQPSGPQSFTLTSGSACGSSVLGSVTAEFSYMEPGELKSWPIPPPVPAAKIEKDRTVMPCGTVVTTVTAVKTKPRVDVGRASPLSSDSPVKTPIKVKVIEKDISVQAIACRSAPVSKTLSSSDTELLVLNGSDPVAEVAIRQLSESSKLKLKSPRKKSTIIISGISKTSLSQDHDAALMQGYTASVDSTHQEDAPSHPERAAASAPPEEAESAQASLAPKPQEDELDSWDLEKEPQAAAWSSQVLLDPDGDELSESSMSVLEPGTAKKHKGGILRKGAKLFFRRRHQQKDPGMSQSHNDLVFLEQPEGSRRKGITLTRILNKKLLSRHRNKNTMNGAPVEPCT
UniProt Q07021: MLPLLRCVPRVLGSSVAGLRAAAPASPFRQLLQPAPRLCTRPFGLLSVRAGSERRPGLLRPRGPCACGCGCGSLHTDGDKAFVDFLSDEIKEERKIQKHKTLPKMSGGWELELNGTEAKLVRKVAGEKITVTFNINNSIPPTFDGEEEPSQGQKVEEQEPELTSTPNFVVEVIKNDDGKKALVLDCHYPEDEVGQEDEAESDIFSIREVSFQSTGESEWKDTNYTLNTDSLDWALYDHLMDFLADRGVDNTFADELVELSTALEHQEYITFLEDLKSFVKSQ
UniProt Q9H425: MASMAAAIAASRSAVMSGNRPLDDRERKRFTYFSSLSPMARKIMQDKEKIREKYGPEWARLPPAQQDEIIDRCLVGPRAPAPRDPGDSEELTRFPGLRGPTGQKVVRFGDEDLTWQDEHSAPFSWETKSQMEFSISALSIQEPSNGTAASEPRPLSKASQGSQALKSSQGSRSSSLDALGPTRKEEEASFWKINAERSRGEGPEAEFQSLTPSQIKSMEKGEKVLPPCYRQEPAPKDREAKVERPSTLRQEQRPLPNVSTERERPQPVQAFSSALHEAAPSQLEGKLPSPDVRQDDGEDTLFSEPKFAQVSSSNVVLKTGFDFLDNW
UniProt Q96LT7: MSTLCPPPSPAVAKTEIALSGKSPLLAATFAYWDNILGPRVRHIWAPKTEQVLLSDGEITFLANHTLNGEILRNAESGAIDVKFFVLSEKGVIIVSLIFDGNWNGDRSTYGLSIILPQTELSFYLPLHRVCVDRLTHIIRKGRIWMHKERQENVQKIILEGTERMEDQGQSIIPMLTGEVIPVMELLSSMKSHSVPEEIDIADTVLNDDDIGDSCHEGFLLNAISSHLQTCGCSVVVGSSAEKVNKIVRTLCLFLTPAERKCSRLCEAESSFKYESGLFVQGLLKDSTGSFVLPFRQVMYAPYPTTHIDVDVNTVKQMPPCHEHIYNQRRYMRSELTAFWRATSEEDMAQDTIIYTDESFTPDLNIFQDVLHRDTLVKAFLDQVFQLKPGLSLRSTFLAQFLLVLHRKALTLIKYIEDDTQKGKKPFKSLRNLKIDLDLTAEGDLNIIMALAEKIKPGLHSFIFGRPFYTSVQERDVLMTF
UniProt Q3KRA6: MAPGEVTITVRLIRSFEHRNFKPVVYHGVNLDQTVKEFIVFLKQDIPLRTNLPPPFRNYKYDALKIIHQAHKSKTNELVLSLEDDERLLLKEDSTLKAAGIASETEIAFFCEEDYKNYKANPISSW
UniProt Q8N999, whole entry, looked up: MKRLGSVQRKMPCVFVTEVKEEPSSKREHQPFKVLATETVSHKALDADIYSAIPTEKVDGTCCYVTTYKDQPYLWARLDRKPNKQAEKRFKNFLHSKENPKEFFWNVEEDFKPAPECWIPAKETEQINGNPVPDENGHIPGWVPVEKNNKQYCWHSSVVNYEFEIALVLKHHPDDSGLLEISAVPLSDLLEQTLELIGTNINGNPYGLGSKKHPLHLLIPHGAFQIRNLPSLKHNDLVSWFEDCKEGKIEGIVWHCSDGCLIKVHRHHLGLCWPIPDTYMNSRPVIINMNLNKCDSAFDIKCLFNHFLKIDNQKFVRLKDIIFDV
UniProt Q9GZU0: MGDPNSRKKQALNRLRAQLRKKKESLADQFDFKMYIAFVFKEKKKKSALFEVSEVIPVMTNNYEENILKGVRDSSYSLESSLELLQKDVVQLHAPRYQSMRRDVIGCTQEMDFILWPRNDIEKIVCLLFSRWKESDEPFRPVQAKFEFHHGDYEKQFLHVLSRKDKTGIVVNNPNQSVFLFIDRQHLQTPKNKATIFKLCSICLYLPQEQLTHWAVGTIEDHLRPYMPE
UniProt Q96MD7: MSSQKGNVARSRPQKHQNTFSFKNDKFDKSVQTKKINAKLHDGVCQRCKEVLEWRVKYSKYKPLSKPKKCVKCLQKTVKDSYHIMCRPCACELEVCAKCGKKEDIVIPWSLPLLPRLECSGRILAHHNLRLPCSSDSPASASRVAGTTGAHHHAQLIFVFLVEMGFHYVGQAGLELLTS

Experiments:
Assay in all cases: log2 fold change, soluble protein after heating vs DMSO (PISA); higher = thermal stabilisation; K562 cells, 10 uM, 30 min; active = over 0.2 and 3.5 SD of the protein, either way, in both replicates (recomputed)
erlotinib = compound: C#Cc1cccc(Nc2ncnc3cc(OCCOC)c(OCCOC)cc23)c1 [erlotinib]
How it was run: (§1)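 K562 cells at 2×10^6 cells/mL were treated for 30 min with 10 μM compound, and aliquots were heated for 3 min over 48°C-58°C before pooling. Extraction used PBS with 0.5% NP-40 at 4°C, and soluble protein was the supernatant after 21,000xg for 90 min, measured by TMTpro 16plex LC-MS/MS with channel sums equalised. Thermal stability values, relative to control samples and from duplicates, are log2 fold changes.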

[1] = compound: C/C(=N\NC(=O)C1=CC(=CC=C1)S(=O)(=O)N2CCOCC2)/C3=C(C=CC(=C3)Cl)O
How it was run: as §1

[2] = compound: C1=CC(=C(C=C1Cl)C2=NC3=NC=CN=C3C(=N2)NC4=CC=NC=C4)F
How it was run: as §1

[3] = compound: C1=CC(=CC=C1C2=NC3=C(N2)C=C(C=C3)C(=O)N)OC4=CC=C(C=C4)Cl
How it was run: as §1

[4] = compound: C1=CC2=C(C=CC(=C2)/C=C\3/C(=O)NC(=NCC4=CC=CS4)S3)N=C1
How it was run: as §1

[5] = compound: C1=CC2=NC=CN=C2C=C1/C=C/3\C(=O)NC(=O)S3
How it was run: as §1

[6] = compound: C1=CC=C(C=C1)C2=NC(=C(N2)C3=CC=NC=C3)C4=CC(=C(C=C4)Cl)O
How it was run: as §1

[7] = compound: C1=CC=C2C(=C1)C3=NNC4=CC=CC(=C43)C2=O
How it was run: as §1

[8] = compound: C1CCN(C1)C(=O)NC2=CC=CC(=C2)NC3=NC=C(C(=N3)NCCC4=CN=CN4)Br
How it was run: as §1

[9] = compound: C1CN(CCC1(CC2=CC=C(C=C2)Cl)N)C3=NC=NC4=C3C=CN4
How it was run: as §1

Measured: log2 fold change

C17orf75 (UniProt Q9HAS0)
inactive: erlotinib -0.024 | [1] 0.053 | [2] 0.034 | [3] 0.004 | [4] 0.107 | [5] 0 | [6] -0.005 | [7] 0.049 | [8] -0.128 | [9] -0.005

BTF3 (UniProt P20290)
inactive: erlotinib 0.006 | [1] 0.039 | [2] 0.006 | [3] -0.015 | [4] -0.095 | [5] -0.006 | [6] 0.014 | [7] 0.013 | [8] -0.013 | [9] 0.018

C4orf33 (UniProt Q8N1A6)
active: [5] -0.287
inactive: erlotinib -0.026 | [1] 0.023 | [2] 0.052 | [3] 0.138 | [4] 0.072 | [6] -0.092 | [7] 0.016 | [8] 0.017 | [9] 0.06

C5orf51 (UniProt A6NDU8)
inactive: erlotinib -0.067 | [1] 0.092 | [2] 0.063 | [3] 0.046 | [4] 0.004 | [5] 0.036 | [6] -0.062 | [7] 0 | [8] -0.017 | [9] -0.037

C19orf25 (UniProt Q9UFG5)
inactive: erlotinib -0.031 | [1] 0.008 | [2] 0.27 | [3] 0.015 | [4] 0.094 | [5] 0.111 | [6] 0.037 | [7] 0.042 | [8] 0 | [9] -0.03

C1orf122 (UniProt Q6ZSJ8)
inactive: erlotinib 0.181 | [1] 0.145 | [2] 0.079 | [3] -0.042 | [4] -0.17 | [5] -0.002 | [6] 0.125 | [7] 0.05 | [8] -0.056 | [9] 0.03

CAPZA2 (UniProt P47755)
inactive: erlotinib -0.056 | [1] 0.049 | [2] 0.041 | [3] 0.02 | [4] -0.013 | [5] 0.015 | [6] 0.03 | [7] -0.007 | [8] 0.031 | [9] 0.042

CANT1 (UniProt Q8WVQ1)
inactive: erlotinib 0.01 | [1] 0.003 | [2] 0.031 | [3] 0.022 | [4] 0.017 | [5] 0.016 | [6] -0.025 | [7] 0.02 | [8] 0.004 | [9] 0.007

CAPNS1 (UniProt P04632)
inactive: erlotinib -0.027 | [1] 0.03 | [2] 0.016 | [3] 0.017 | [4] 0.022 | [5] 0.049 | [6] -0.072 | [7] -0.016 | [8] 0.036 | [9] 0.066

CALM2 (UniProt P0DP24)
inactive: erlotinib -0.058 | [1] -0.018 | [2] 0.031 | [3] 0.001 | [4] -0.007 | [5] 0.026 | [6] 0.021 | [7] -0.031 | [8] -0.01 | [9] 0.033

CAPN7 (UniProt Q9Y6W3)
inactive: erlotinib 0.003 | [1] 0.083 | [2] 0.005 | [3] -0.023 | [4] 0.016 | [5] 0.043 | [6] -0.088 | [7] 0.019 | [8] -0.039 | [9] -0.026

C3 (UniProt P01024)
inactive: erlotinib -0.125 | [1] -0.093 | [2] 0.015 | [3] 0.087 | [4] 0.117 | [5] -0.045 | [6] -0.073 | [7] -0.116 | [8] 0.054 | [9] 0.164

BTAF1 (UniProt O14981)
inactive: erlotinib 0.04 | [1] 0.078 | [2] 0.072 | [3] 0.005 | [4] 0.048 | [5] -0.006 | [6] -0.038 | [7] -0.032 | [8] 0.011 | [9] 0.05

C2CD2 (UniProt Q9Y426)
inactive: erlotinib 0.094 | [1] -0.002 | [2] -0.088 | [3] 0.024 | [4] 0.038 | [5] 0.078 | [6] 0.064 | [7] -0.129 | [8] -0.039 | [9] 0.13

C1QBP (UniProt Q07021)
inactive: erlotinib -0.088 | [1] -0.044 | [2] 0.058 | [3] 0.044 | [4] 0.013 | [5] -0.003 | [6] -0.024 | [7] 0.028 | [8] 0.057 | [9] 0.02

C1orf198 (UniProt Q9H425)
inactive: erlotinib 0.101 | [1] -0.041 | [2] 0 | [3] 0.159 | [4] -0.108 | [5] 0.031 | [6] -0.058 | [7] -0.004 | [8] -0.001 | [9] 0.03

C4A (UniProt P0C0L4)
inactive: erlotinib -0.117 | [1] -0.05 | [2] 0.024 | [3] 0.078 | [4] 0.12 | [5] -0.032 | [6] 0.002 | [7] -0.132 | [8] 0.072 | [9] 0.104

C9orf72 (UniProt Q96LT7)
inactive: erlotinib 0.095 | [1] 0.021 | [2] 0.02 | [3] -0.012 | [4] -0.068 | [5] -0.068 | [6] -0.086 | [7] -0.057 | [8] -0.205 | [9] 0.211

BUD23 isoform 3 (UniProt O43709)
inactive: erlotinib 0.087 | [1] -0.085 | [2] -0.198 | [3] 0.022 | [4] 0.146 | [5] 0.027 | [6] -0.039 | [7] 0.027 | [8] 0.079 | [9] -0.023

C2orf76 (UniProt Q3KRA6)
inactive: erlotinib 0.06 | [1] -0.13 | [3] -0.117 | [4] 0.316 | [5] -0.123 | [7] 0.242 | [8] -0.122 | [9] 0.059

CARD9 (UniProt Q9H257)
inactive: erlotinib -0.173 | [1] 0.211 | [3] 0.056 | [4] -0.184 | [6] 0.129 | [7] -0.058

C12orf29 (UniProt Q8N999)
inactive: erlotinib 0.026 | [1] -0.14 | [2] 0.046 | [3] -0.002 | [4] 0.057 | [5] 0.043 | [6] -0.05 | [7] -0.075 | [8] 0.128 | [9] 0.05

BTK isoform 2 (UniProt Q06187)
inactive: erlotinib 0.038 | [1] -0.106 | [2] -0.387 | [3] -0.109 | [4] 0.01 | [6] -0.065 | [7] 0.032 | [8] -0.012 | [9] -0.03

CAPZA1 (UniProt P52907)
inactive: erlotinib -0.001 | [1] 0.018 | [2] 0.028 | [3] 0.015 | [4] 0.048 | [5] 0.011 | [6] 0.006 | [7] 0 | [8] -0.051 | [9] 0.01

Two consecutive entries out of the list so far:
C2CD2 (UniProt Q9Y426)
inactive: erlotinib 0.094 | [1] -0.002 | [2] -0.088 | [3] 0.024 | [4] 0.038 | [5] 0.078 | [6] 0.064 | [7] -0.129 | [8] -0.039 | [9] 0.13

C1QBP (UniProt Q07021)
inactive: erlotinib -0.088 | [1] -0.044 | [2] 0.058 | [3] 0.044 | [4] 0.013 | [5] -0.003 | [6] -0.024 | [7] 0.028 | [8] 0.057 | [9] 0.02

Going on with the list.

C18orf25 isoform 2 (UniProt Q96B23)
inactive: erlotinib 0.009 | [1] -0.081 | [2] 0.018 | [3] -0.154 | [4] 0.021 | [5] -0.008 | [7] 0.012 | [8] 0.097 | [9] 0.115

C6orf62 (UniProt Q9GZU0)
inactive: erlotinib 0.097 | [2] -0.057 | [3] 0.053

CAB39 (UniProt Q9Y376)
inactive: erlotinib -0.004 | [1] -0.025 | [2] 0.022 | [3] -0.018 | [4] 0.034 | [5] -0.009 | [6] 0.016 | [7] 0.012 | [8] -0.004 | [9] 0.029

C4BPA (UniProt P04003)
inactive: erlotinib 0.11 | [1] -0.172 | [2] -0.062 | [3] -0.261 | [4] 0.162 | [5] -0.117 | [7] 0 | [8] -0.246 | [9] 0.048

C9orf85 isoform 1 (UniProt Q96MD7)
inactive: erlotinib 0.006 | [1] -0.062 | [2] 0.081 | [3] 0.01 | [4] 0.362 | [7] -0.141 | [8] -0.035 | [9] 0.014
